Measured values taken from patent publication US20100209959A1, “TUMOUR-CELL-FIXING CELLS” (UNIVERSITE PIERRE ET MARIE CURIE-PARIS VI, priority 2007, published 2010).
At least one structure is not confirmed: it was looked up by name or label, or the drawing left a doubt.

Tested on: OVCAR3 cells
Experiment: Adhesion assay between hospicells and OVCAR3 cells expressing GFP
Assay type: cell-based
Conditions: 2 hours at 37° C., GFP fluorescence

`COC[C@H]1OC(=O)c2coc3c2[C@@]1(C)C1=C(C3=O)[C@@H]2CCC(=O)[C@@]2(C)C[C@H]1OC(C)=O` [wortmannin] was tested, and the “adhesion of the hospicells to the OVCAR3 cells” value was “inhibited”.
